From US11192869B2, “CFTR regulators and methods of use thereof” (THE REGENTS OF THE UNIVERSITY OF CALIFORNIA, priority 2015, dated 2021)
At least one compound was matched to its structure with a doubt left.

Test system: tear secretion
Experiment: Tear secretion (phenol red thread)
Format: in vivo, mouse
Settings: after 2 hours

## C=C[C@@]1(C)CC(=O)[C@]2(O)[C@@]3(C)[C@@H](O)CCC(C)(C)[C@@H]3[C@H](O)[C@H](OC(C)=O)[C@@]2(C)O1 [forskolin, reference compound]
  persistence of tear secretion effect: transient and undetectable after 2 hours
